Values from PubChem BioAssay AID686943 (Drosophila RNAi Screening Center, 2013)
The deposit covers about 23,000 reagents; this is an unselected part of those with a known target gene and a result. 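Extra replicates exist only for a retested subset of genes; insulin dose and duration not given; both raised and lowered dpERK matter.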 Reagents against one gene are numbered here. Names joined by + are all predicted targets of the reagent. Reagent sequences are not shown. The record does not give: the amount of reagent, the time to read-out.

- Aim: 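Search across the genome for regulators of signalling from receptor tyrosine kinase to ERK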 (primary screen)
- Cell system: Drosophila S2R+ haemocyte-like cells expressing YFP-tagged ERK (Rolled)
- Reagent: long dsRNA against Drosophila genes
- Conditions: insulin stimulation versus unstimulated cells; dose and duration not given
- Read-out: 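Per-plate z-scores of phospho-ERK immunostaining normalised to YFP-tagged ERK, measured with and without insulin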
- Scale: replicate 1, z-score of dpERK with insulin and replicate 2, z-score of dpERK with insulin: higher = more active ERK per ERK-YFP after insulin; replicate 1, z-score of dpERK under basal conditions: higher = more basal active ERK per ERK-YFP; replicate 1, z-score of ERK-YFP with insulin: higher = more YFP-tagged ERK signal

gene knocked down | reagent | replicate 1, z-score of dpERK with insulin | replicate 2, z-score of dpERK with insulin | replicate 1, z-score of dpERK under basal conditions | replicate 1, z-score of ERK-YFP with insulin
Bgb | 1 | -0.67 | -0.43 | -0.4 | 0.37
yellow-d | 1 | 0.67 | -0.47 | 0.45 | 0.12
CG30334 | 1 | 0.94 | 0.41 | 0.3 | 0.29
hdm | 1 | -0.13 | 0.71 | 0.41 | 1.38
edin | 1 | 0.56 | 0.44 | 0.36 | -0.79
CG7882 | 1 | 0.64 | 0.84 | 0.48 | -1.29
muc | 1 | 0.1 | 0.72 | 0.81 | 0.22
muc | 2 | 0.94 | 0.74 | -0.32 | -1.56
CG12398 | 1 | -1.71 | -1.34 | -0.74 | -0.26
CG5381 | 1 | 0.12 | -0.13 | 0.6 | -0.83
emp | 1 | -0.21 | -0.05 | 0.65 | 0
emp | 2 | 0.75 | 0.36 | 0.33 | -0.51
CG42455 + vnc | 1 | 1.97 | 1.26 | -0.51 | -1.31
CG42686 (retired record) | 1 | -1.46 | -3.05 | -3.38 | -0.26
CG42686 (retired record) | 2 | -0.35 | 0 | 0.34 | 0.44
Dp1 | 1 | 0.52 | 1.04 | -0.13 | -0.1
CG3107 | 1 | 0.1 | 0.22 | 0.38 | 0.27
Mad1 | 1 | 0.52 | 0.25 | 1.02 | -0.44
CG5554 | 1 | -1.22 | 0.05 | -0.8 | -0.31
wac | 1 | -1.16 | -0.42 | -0.58 | 0.16
SF2 | 1 | 0.72 | 0 | 1.84 | -6.3
CG9897 + asRNA:CR42742 | 1 | 0.39 | 0.73 | 0.72 | 0.32
CG30075 | 1 | 0.38 | 0.3 | 1.04 | 0.01
CG17996 + Tsen2 | 1 | -0.93 | 0.42 | 0.19 | 1.07
Idgf6 | 1 | 1.08 | 0.06 | 0.42 | -1
Cpr47Ee | 1 | -2.8 | -3.78 | -1.88 | -1.37
CG3651 | 1 | 0.38 | 0.38 | 1.09 | 0.11
CG5439 | 1 | -0.3 | 0.3 | -0.17 | 0.39
CG34228 | 1 | 0.16 | 0.66 | -0.02 | -0.35
CG17075 | 1 | 0.82 | 0.31 | -0.3 | 1.01
CG9902 | 1 | 0.22 | -0.27 | 0.45 | -0.06
Galphao | 1 | 0.75 | 0.45 | 0.52 | 0.27
CG6788 + CR32496 | 1 | -0.46 | -0.14 | 0.36 | 0.02
CG8034 | 1 | -0.64 | -1.07 | -1.6 | -2.73
Aprt | 1 | -0.11 | -1.73 | -0.25 | -0.45
Vps13D | 1 | -0.35 | -0.31 | 0.02 | 0.56
Vps13D | 2 | 0.18 | 0.09 | 0.69 | 1.26
CG42697 | 1 | 0.5 | 0.3 | -0.49 | 0.14
RhoGEF4 | 1 | -0.27 | -0.24 | 0.02 | -0.03
Bin1 | 1 | 0.62 | 0.48 | 0.23 | -0.08
CG11162 | 1 | 1.16 | 0.72 | 0.57 | -0.15
CG11162 | 2 | 0.81 | 0.52 | 0.78 | 0.08
CR43999 (retired record) | 1 | 0.63 | 1.58 | 0.18 | 0.58
Su(H) | 1 | 0.23 | 0.38 | -0.76 | -0.48
Octalpha2R | 1 | 1.02 | -0.21 | -0.14 | -0.07
Octalpha2R | 2 | 0.49 | 0 | 0.88 | 0.58
rno | 1 | 0.02 | 0.24 | -2.1 | 0.28
CG33233 | 1 | 0.62 | -0.05 | -0.32 | -0.38
CG42340 | 1 | 0.42 | -1.34 | -0.02 | 0.17
CG42340 | 2 | 1.03 | -1.53 | 0.68 | -0.1
CG42340 | 3 | 1.36 | 0 | -0.99 | -1.12
CG42340 | 4 | 0.35 | -0.31 | 0.53 | -0.77
CG9386 | 1 | -0.87 | -0.5 | -0.63 | 1.8
TwdlO | 1 | 0.31 | -0.01 | 5.9 | -0.53
CG10864 | 1 | 1.01 | -0.21 | -0.16 | -0.59
flz | 1 | 0.52 | 0.8 | 0.45 | -0.18
CG13321 | 1 | -0.13 | 0.34 | 0.18 | 0.47
Ugt35E2 | 1 | 0.39 | 0.1 | -0.3 | 0.63
CG43134 | 1 | 0.54 | 0.9 | 0.25 | 0.09
Paip2 | 1 | -0.35 | -0.47 | -0.89 | 0.17
SP1173 | 1 | 0.33 | 1.07 | 0.18 | -0.72
CG10417 | 1 | 0.3 | 0.57 | 1.7 | -0.23
GstT1 | 1 | 0.92 | -0.29 | 0.48 | -0.22
Hasp | 1 | -0.24 | -0.29 | 0.03 | 0.2
Psc | 1 | -0.09 | -0.34 | -0.11 | 0.09
CG33325 | 1 | -0.56 | 0.34 | 0.91 | 1.06
mIF2 | 1 | -0.9 | -0.1 | 0.56 | -0.28
CG18180 | 1 | 0.13 | -1.32 | 0.53 | 0.15
Pstk + Tim9b | 1 | -0.1 | 1.36 | -0.08 | 0.68
Pstk + Tim9b | 2 | 0.6 | 0.15 | 0.58 | 0
Madm | 1 | -0.12 | -0.17 | 0.35 | 1.19
klhl10 | 1 | 0.25 | -0.89 | 0.19 | -0.14
klhl10 | 2 | 0.5 | 1.6 | 0.09 | -0.25
klhl10 | 3 | -1.38 | 0.08 | 0.95 | 0.36
klhl10 | 4 | 0.06 | 0.07 | 1.52 | 0.33
